Experimental data: PubChem BioAssay AID1508587 (Peter MacCallum Cancer Centre, 2020)
Shown is one part, drawn at random, of about 1,600 deposited reagents. 623 of all reagents (39%) were called active. 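Calls are for each duplex; lactate ratios contain extreme outliers.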 Reagents against one gene are numbered here. Not all columns of the deposit are shown.

Aim: 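Retest of knockdowns boosting BRAF inhibitor action on lactate release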 (follow-up of hits)
System: human WM266.4 melanoma cells with a BRAF V600 mutation
Knock-down reagent: single siRNA against human genes, 25 nM
Timing: 96 h
Treatment: vemurafenib 300 nM (about IC25), given 48 h after transfection for 48 h
Detection: 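Medium lactate read by absorbance over DAPI-counted nuclei; ratio with versus without vemurafenib, set against non-targeting siRNA, averaged over 2 replicates; cell number also recorded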
Direction: lactate per cell, drug vs no drug: higher = less drug-induced drop in lactate per cell; lactate per cell with vemurafenib: higher = more lactate per cell under drug; lactate per cell without drug: higher = more lactate per cell without drug
Call rule: 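a duplex is active when its lactate-per-cell ratio with versus without drug falls under 0.55, i.e. 2 SD below non-targeting; a gene is confirmed if 2 or more of 4 duplexes pass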

The opening 2 entries as a preview:
no.	Gene	reagent no.	lactate per cell, drug vs no drug	lactate per cell with vemurafenib	lactate per cell without drug	activity call
1	BCORL1	1	0.7	2.4	2.17	inactive
2	BCORL1	2	0.72	1.23	1.06	inactive

The listing, repeating the preview:
no.	Gene	reagent no.	lactate per cell, drug vs no drug	lactate per cell with vemurafenib	lactate per cell without drug	activity call
1	BCORL1	1	0.7	2.4	2.17	inactive
2	BCORL1	2	0.72	1.23	1.06	inactive
3	BCORL1	3	0.22	0.28	0.8	active
4	BCORL1	4	0.48	0.86	1.1	active
5	MED12	1	0.68	1.19	1.14	inactive
6	MED12	2	0.55	1.56	1.88	inactive
7	MED12	3	0.48	1.2	1.66	active
8	MED12	4	0.46	1.02	1.42	active
9	STRBP	1	0.5	1.5	2.1	active
10	STRBP	2	0.62	1.23	1.32	inactive
11	STRBP	3	0.93	1.3	0.94	inactive
12	STRBP	4	0.55	0.74	0.91	inactive
13	DLL3	1	0.55	1.35	1.54	inactive
14	DLL3	2	0.36	0.74	1.29	active
15	DLL3	3	0.34	0.52	0.96	active
16	DLL3	4	0.7	1.84	1.66	inactive
17	SPATA31E1	1	0.33	1.12	2.16	active
18	SPATA31E1	2	0.68	2.39	2.21	inactive
19	SPATA31E1	3	0.5	1.25	1.56	active
20	SPATA31E1	4	0.83	0.91	0.7	inactive
